# This is one part of the list.
# By UniProt entry, the sequences of proteins in these tests, tags left out. Where a name states a change or a piece, a line headed by the entry shows the natural chain unless it says otherwise.
# UniProt P13929, whole entry, looked up: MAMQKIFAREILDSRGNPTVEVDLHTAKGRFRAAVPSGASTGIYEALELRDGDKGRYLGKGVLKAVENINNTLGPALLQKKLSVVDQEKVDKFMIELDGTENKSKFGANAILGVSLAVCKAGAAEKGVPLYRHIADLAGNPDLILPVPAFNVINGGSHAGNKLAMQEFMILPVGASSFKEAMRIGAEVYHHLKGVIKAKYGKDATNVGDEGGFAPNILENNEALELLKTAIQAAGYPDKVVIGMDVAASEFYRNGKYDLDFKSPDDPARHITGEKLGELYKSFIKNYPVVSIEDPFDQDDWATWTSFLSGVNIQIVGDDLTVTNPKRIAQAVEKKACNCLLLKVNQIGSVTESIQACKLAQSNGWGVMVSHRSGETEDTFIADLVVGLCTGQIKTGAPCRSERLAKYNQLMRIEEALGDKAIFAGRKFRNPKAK
# UniProt P98172: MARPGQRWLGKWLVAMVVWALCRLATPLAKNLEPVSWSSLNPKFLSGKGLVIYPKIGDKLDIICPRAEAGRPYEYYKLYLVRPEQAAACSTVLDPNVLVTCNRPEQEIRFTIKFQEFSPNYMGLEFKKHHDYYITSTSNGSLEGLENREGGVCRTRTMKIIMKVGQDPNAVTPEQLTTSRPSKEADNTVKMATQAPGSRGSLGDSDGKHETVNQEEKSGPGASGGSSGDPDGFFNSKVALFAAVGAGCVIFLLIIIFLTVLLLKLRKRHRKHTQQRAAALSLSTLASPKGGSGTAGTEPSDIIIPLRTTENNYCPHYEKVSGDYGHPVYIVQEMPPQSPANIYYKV
# UniProt Q04637, whole entry, looked up: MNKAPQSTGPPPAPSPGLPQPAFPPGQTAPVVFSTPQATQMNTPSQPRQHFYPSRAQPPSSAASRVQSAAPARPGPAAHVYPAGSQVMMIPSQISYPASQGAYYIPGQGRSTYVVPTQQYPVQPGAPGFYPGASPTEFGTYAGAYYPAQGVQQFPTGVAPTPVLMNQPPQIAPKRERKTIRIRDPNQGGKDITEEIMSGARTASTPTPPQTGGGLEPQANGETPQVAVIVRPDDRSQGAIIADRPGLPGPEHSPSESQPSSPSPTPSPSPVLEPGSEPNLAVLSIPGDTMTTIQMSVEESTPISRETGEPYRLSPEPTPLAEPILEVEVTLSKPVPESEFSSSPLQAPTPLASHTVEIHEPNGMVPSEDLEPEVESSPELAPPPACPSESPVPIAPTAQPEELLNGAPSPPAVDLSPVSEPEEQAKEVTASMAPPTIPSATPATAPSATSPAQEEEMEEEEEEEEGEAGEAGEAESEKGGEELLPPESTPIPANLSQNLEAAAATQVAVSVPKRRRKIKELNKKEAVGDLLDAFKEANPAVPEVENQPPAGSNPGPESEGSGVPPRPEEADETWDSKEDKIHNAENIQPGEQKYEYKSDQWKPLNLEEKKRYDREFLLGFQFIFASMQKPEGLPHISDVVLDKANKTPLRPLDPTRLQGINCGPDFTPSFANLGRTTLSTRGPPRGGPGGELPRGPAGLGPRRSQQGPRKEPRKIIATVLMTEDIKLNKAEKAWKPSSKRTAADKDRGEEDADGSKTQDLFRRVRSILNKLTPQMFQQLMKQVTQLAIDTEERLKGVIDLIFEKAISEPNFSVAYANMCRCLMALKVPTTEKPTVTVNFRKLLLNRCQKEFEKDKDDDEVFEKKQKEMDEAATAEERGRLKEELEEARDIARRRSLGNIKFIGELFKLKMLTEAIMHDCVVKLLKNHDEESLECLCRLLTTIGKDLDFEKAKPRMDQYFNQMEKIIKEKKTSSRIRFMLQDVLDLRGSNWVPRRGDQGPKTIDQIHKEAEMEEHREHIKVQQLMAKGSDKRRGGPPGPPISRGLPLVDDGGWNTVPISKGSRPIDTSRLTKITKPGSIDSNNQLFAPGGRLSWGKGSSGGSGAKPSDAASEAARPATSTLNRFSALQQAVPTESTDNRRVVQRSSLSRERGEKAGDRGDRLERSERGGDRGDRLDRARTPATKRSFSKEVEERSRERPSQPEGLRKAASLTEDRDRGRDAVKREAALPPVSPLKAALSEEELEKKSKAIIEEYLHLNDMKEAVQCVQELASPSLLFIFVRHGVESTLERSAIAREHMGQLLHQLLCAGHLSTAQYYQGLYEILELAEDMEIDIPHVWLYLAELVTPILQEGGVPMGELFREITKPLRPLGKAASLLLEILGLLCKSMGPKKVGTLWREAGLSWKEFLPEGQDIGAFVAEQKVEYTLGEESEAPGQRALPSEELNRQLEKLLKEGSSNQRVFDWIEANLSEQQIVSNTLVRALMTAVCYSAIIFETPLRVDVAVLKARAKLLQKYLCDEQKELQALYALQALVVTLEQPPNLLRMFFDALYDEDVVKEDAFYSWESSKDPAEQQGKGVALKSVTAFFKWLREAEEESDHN
# UniProt O75821, whole entry, looked up: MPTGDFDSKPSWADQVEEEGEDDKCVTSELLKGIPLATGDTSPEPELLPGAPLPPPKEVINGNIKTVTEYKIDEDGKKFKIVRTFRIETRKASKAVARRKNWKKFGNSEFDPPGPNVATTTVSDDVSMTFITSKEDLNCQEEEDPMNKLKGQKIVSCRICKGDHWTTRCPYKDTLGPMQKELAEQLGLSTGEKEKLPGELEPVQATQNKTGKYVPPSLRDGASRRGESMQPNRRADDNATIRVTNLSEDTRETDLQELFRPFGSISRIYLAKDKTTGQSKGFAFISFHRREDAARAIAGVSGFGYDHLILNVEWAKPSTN
# UniProt Q9BY44: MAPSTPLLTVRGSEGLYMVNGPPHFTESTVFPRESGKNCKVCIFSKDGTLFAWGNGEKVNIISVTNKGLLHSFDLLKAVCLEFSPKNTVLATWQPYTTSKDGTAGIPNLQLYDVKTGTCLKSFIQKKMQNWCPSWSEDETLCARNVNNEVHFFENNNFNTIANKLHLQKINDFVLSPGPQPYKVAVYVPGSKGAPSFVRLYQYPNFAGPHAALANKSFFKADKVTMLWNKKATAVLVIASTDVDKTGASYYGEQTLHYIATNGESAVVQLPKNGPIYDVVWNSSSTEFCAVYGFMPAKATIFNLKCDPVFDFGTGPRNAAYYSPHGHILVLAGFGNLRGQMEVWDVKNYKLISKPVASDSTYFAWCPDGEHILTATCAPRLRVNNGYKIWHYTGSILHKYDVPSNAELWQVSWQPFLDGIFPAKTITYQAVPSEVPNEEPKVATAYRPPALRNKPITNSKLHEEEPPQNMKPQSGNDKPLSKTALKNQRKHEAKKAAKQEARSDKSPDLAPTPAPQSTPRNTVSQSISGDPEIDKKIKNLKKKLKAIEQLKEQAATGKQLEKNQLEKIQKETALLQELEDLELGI
# UniProt O75822, whole entry, looked up: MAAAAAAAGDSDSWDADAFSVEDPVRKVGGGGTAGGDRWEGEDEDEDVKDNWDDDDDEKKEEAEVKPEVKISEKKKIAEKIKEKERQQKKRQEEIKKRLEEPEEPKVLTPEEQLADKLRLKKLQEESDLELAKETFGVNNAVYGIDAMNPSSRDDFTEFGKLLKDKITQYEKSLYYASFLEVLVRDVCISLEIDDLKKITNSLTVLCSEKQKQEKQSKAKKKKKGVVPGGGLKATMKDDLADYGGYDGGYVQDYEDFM
# UniProt Q5VTE0, whole entry, looked up: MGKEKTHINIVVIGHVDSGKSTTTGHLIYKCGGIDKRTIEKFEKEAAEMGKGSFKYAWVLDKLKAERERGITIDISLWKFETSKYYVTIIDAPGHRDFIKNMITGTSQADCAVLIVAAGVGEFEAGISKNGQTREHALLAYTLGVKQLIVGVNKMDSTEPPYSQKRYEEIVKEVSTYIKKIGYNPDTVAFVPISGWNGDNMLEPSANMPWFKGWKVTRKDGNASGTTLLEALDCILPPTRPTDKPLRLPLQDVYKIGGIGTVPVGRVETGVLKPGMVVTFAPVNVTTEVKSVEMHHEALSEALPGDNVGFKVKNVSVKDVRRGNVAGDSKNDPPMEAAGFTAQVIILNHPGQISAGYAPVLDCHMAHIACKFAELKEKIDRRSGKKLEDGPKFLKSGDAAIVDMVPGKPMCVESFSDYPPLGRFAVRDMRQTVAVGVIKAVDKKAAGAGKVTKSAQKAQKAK
# UniProt Q6IA86: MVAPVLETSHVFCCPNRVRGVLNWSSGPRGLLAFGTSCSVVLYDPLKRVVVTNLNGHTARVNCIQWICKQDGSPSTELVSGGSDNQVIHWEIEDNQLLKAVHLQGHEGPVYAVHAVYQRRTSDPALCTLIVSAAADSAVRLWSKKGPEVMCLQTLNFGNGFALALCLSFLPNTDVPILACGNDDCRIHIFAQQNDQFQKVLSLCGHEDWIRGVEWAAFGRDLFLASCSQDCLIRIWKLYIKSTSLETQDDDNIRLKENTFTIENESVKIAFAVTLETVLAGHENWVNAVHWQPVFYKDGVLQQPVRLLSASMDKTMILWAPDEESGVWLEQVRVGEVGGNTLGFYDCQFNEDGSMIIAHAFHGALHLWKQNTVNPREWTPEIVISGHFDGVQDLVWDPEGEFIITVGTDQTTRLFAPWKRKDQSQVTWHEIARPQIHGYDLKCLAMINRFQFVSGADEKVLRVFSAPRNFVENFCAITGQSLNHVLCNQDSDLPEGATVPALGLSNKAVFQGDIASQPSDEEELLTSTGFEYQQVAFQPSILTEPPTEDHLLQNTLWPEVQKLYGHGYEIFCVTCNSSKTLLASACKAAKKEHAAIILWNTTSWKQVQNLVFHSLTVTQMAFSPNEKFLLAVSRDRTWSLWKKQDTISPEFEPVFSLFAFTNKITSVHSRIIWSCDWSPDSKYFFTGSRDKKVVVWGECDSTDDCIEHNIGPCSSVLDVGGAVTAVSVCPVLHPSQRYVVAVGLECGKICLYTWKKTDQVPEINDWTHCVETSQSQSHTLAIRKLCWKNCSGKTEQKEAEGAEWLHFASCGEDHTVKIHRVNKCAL
# UniProt Q7Z2Z2: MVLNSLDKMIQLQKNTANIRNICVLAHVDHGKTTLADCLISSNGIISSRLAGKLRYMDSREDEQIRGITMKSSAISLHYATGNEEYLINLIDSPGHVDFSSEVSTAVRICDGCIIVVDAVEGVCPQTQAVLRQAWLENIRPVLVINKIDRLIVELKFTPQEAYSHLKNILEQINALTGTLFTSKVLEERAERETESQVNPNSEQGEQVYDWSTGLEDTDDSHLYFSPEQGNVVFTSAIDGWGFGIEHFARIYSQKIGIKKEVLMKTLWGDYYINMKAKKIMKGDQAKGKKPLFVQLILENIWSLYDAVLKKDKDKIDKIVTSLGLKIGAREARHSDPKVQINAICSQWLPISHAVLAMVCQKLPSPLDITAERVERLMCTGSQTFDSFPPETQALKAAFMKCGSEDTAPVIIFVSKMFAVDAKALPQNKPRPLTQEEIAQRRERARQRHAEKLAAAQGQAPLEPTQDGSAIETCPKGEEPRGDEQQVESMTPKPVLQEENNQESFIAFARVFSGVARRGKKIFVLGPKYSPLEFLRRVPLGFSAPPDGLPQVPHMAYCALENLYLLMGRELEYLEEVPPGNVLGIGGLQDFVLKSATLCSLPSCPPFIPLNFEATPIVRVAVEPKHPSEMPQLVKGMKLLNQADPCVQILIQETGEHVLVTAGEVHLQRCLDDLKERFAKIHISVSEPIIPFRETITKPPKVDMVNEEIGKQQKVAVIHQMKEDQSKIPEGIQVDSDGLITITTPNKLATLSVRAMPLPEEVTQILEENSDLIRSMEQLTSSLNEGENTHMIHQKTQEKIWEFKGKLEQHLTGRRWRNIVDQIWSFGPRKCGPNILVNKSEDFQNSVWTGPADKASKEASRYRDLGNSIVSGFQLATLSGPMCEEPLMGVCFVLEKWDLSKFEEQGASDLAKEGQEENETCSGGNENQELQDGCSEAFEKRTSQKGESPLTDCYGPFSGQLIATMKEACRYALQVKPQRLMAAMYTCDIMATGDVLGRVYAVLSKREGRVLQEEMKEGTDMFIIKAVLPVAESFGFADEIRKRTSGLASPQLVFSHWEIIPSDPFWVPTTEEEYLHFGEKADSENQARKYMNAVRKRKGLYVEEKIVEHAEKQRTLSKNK
# UniProt P55199: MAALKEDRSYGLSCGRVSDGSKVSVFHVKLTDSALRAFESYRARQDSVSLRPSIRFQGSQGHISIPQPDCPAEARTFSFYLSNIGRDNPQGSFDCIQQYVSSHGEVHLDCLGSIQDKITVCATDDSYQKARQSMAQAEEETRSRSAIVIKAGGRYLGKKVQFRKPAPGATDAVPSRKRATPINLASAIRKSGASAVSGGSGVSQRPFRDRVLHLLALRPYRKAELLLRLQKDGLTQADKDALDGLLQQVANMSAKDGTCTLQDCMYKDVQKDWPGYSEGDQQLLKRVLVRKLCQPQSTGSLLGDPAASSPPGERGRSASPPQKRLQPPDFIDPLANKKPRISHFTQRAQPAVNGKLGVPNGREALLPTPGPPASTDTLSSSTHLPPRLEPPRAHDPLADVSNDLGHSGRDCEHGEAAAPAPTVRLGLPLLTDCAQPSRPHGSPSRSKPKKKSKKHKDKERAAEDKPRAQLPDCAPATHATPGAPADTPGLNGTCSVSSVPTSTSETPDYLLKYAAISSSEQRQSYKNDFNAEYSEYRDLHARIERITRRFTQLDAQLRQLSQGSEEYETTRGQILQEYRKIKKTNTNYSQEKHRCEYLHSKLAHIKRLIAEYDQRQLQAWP
# Assays:
# Experiment in all cases: log2 fold change, soluble protein after heating vs DMSO (PISA); higher = thermal stabilisation; K562 cells, 10 uM, 30 min; active = over 0.2 and 3.5 SD of the protein, either way, in both replicates (recomputed)
# bafetinib = compound: Cc1ccc(NC(=O)c2ccc(CN3CC[C@H](N(C)C)C3)c(C(F)(F)F)c2)cc1Nc1nccc(-c2cncnc2)n1 [bafetinib]
# Procedure, shortened: (§1)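 K562 cells at 2×10^6 cells/mL were given 10 μM compound for 30 min. Aliquots then went through 3 min of heating across 48°C-58°C, were pooled, and were extracted in PBS with 0.5% NP-40 at 4°C, and the supernatant after 21,000xg for 90 min was quantified by TMTpro 16plex LC-MS/MS with channel sums equalised. Thermal stability relative to control samples, from duplicates, is given as log2 fold change.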
# [1] = compound: Cc1cccc(CC(=O)N2CCc3c2ccc(-c2cn(C)c4ncnc(N)c24)c3F)n1
# Procedure, shortened: as §1
# nilotinib = compound: Cc1cn(-c2cc(NC(=O)c3ccc(C)c(Nc4nccc(-c5cccnc5)n4)c3)cc(C(F)(F)F)c2)cn1 [nilotinib]
# Procedure, shortened: as §1
# [2] = compound: Cc1nc(Nc2n[nH]c3c2CN(C(=O)N[C@H](CN(C)C)c2ccccc2)C3(C)C)c2sccc2n1
# Procedure, shortened: as §1
# dasatinib = compound: Cc1nc(Nc2ncc(C(=O)Nc3c(C)cccc3Cl)s2)cc(N2CCN(CCO)CC2)n1 [dasatinib]
# Procedure, shortened: as §1
# [3] = compound: Cc1ncc(-c2ccnc(Nc3ccc(S(C)(=O)=O)cc3)n2)n1C(C)C
# Procedure, shortened: as §1
# [4] = compound: Cn1cc(-c2ccc3c(c2)CCN3C(=O)Cc2cccc(C(F)(F)F)c2)c2c(N)ncnc21
# Procedure, shortened: as §1
# [5] = compound: Cn1cc(-c2ccc3nnc(C(F)(F)c4ccc5ncccc5c4)n3n2)cn1
# Procedure, shortened: as §1
# tipifarnib = compound: Cn1cncc1[C@@](N)(c1ccc(Cl)cc1)c1ccc2c(c1)c(-c1cccc(Cl)c1)cc(=O)n2C [tipifarnib]
# Procedure, shortened: as §1
# mubritinib = compound: FC(F)(F)c1ccc(/C=C/c2nc(COc3ccc(CCCCn4ccnn4)cc3)co2)cc1 [mubritinib]
# Procedure, shortened: as §1
Target,log2 fold change (bafetinib),log2 fold change [1],log2 fold change (nilotinib),log2 fold change [2],log2 fold change (dasatinib),log2 fold change [3],log2 fold change [4],log2 fold change [5],log2 fold change (tipifarnib),log2 fold change (mubritinib)
EIF3L (UniProt Q9Y262),inactive: -0.014,inactive: 0.017,inactive: 0.003,inactive: -0.001,inactive: -0.046,inactive: -0.047,inactive: 0.009,inactive: 0.001,inactive: -0.002,inactive: 0.014
ENO3 (UniProt P13929),inactive: 0.006,inactive: 0.07,inactive: 0.002,inactive: 0.062,inactive: 0,inactive: -0.01,inactive: 0.042,inactive: -0.044,inactive: -0.095,inactive: -0.052
ENTPD4 (UniProt Q9Y227),inactive: 0.034,inactive: 0.14,,,,,,,,
ELP5 isoform 4 (UniProt Q8TE02),inactive: -0.015,inactive: -0.039,inactive: 0.037,inactive: 0.009,inactive: 0.047,inactive: -0.031,inactive: 0.003,inactive: 0.02,inactive: 0.105,inactive: 0.05
EMC8 (UniProt O43402),inactive: -0.013,inactive: 0.032,inactive: 0.034,inactive: -0.004,inactive: 0.041,inactive: -0.027,inactive: 0.046,inactive: 0.015,inactive: -0.007,inactive: 0.043
EMD (UniProt P50402),inactive: -0.167,inactive: -0.081,inactive: 0.074,inactive: -0.071,inactive: -0.017,inactive: -0.045,inactive: -0.005,inactive: -0.098,inactive: 0.087,inactive: 0.031
EFNB1 (UniProt P98172),inactive: 0.064,inactive: 0.046,inactive: 0.062,inactive: 0,inactive: 0.264,inactive: -0.039,inactive: 0.013,inactive: -0.07,inactive: 0.05,inactive: 0.047
EGFL7 (UniProt Q9UHF1),inactive: 0.083,inactive: 0.003,,,,,,,,
EIF5B (UniProt O60841),inactive: 0.093,inactive: 0.073,inactive: -0.018,inactive: 0.025,inactive: -0.01,inactive: 0.021,inactive: -0.003,inactive: -0.052,inactive: -0.039,inactive: 0.014
ENPP3 (UniProt O14638),inactive: 0.033,inactive: -0.056,inactive: 0.076,inactive: -0.074,inactive: 0.137,inactive: -0.132,inactive: -0.066,inactive: -0.021,inactive: -0.047,inactive: 0.093
EIF4G1 isoform 8 (UniProt Q04637),inactive: -0.002,inactive: 0.046,inactive: -0.223,inactive: -0.11,inactive: -0.157,inactive: -0.17,inactive: -0.155,inactive: -0.117,inactive: -0.083,inactive: -0.071
EEF1AKNMT (UniProt Q8N6R0),inactive: 0.067,inactive: -0.008,inactive: -0.02,inactive: -0.062,inactive: -0.118,inactive: 0.084,inactive: -0.031,inactive: 0.003,inactive: -0.154,inactive: 0.089
EIF2D (UniProt P41214),inactive: 0.153,inactive: 0.185,inactive: -0.002,inactive: -0.028,inactive: -0.265,inactive: 0.009,inactive: 0.04,inactive: 0.033,inactive: -0.2,inactive: 0.014
EIF3G (UniProt O75821),inactive: -0.006,inactive: 0.045,inactive: -0.135,inactive: -0.109,inactive: -0.08,inactive: -0.017,inactive: -0.025,inactive: -0.024,inactive: -0.033,inactive: 0.022
ENOSF1 (UniProt Q7L5Y1),inactive: -0.016,inactive: -0.02,inactive: 0,inactive: 0.043,inactive: -0.01,inactive: -0.031,inactive: 0.056,inactive: 0,inactive: 0.022,inactive: 0.026
EIF2A (UniProt Q9BY44),inactive: 0.082,inactive: 0.028,inactive: -0.019,inactive: 0.043,inactive: 0,inactive: 0.017,inactive: -0.077,inactive: -0.065,inactive: 0.015,inactive: -0.056
ENPP2 isoform 2 (UniProt Q13822),inactive: -0.177,,,,,,,,,
EIF3J (UniProt O75822),inactive: -0.067,active: 0.266,inactive: 0.001,inactive: -0.019,inactive: -0.018,inactive: 0.008,inactive: 0.022,inactive: -0.014,inactive: -0.013,inactive: 0.033
EEF1A1P5 (UniProt Q5VTE0),inactive: 0.005,inactive: 0.001,inactive: -0.076,inactive: 0.025,inactive: -0.006,inactive: -0.017,inactive: 0.045,inactive: 0.019,inactive: -0.019,inactive: 0.016
EIF2B2 (UniProt P49770),inactive: 0.037,inactive: 0.036,inactive: 0.045,inactive: -0.003,inactive: 0.038,inactive: -0.001,inactive: -0.086,inactive: -0.055,inactive: -0.04,inactive: -0.005
EFHD2 (UniProt Q96C19),inactive: -0.076,inactive: 0.031,inactive: -0.087,inactive: 0.177,inactive: 0.002,inactive: 0.071,inactive: -0.115,inactive: 0.023,inactive: -0.095,inactive: 0.072
EIF4G2 (UniProt P78344),inactive: 0.154,inactive: 0.001,inactive: -0.107,inactive: -0.191,inactive: -0.032,inactive: -0.048,inactive: -0.12,inactive: -0.167,inactive: -0.118,inactive: -0.091
EML3 isoform 2 (UniProt Q32P44),inactive: 0.071,inactive: 0.039,inactive: -0.09,inactive: -0.069,inactive: 0.054,inactive: -0.042,inactive: -0.021,inactive: -0.129,inactive: 0.055,inactive: 0.001
ELP2 isoform 6 (UniProt Q6IA86),inactive: -0.023,inactive: 0.038,inactive: -0.011,inactive: 0.021,inactive: 0.016,inactive: -0.008,inactive: 0,inactive: -0.029,inactive: 0.019,inactive: -0.017
EPB41L1 (UniProt Q9H4G0),inactive: 0.027,inactive: 0.02,inactive: 0.034,inactive: -0.071,inactive: 0.108,inactive: -0.01,inactive: -0.136,inactive: 0,inactive: 0.08,inactive: 0.043
EFL1 (UniProt Q7Z2Z2),inactive: -0.043,inactive: -0.014,inactive: -0.147,inactive: -0.052,inactive: -0.077,inactive: 0.003,inactive: 0.021,inactive: 0.028,inactive: -0.026,inactive: -0.109
ELP4 (UniProt Q96EB1),inactive: -0.074,inactive: -0.009,inactive: -0.008,inactive: 0.02,inactive: 0.047,inactive: 0.024,inactive: 0.01,inactive: -0.006,inactive: -0.029,inactive: 0.042
ELL (UniProt P55199),inactive: 0.237,inactive: -0.014,inactive: -0.331,inactive: -0.196,inactive: -0.133,inactive: -0.12,inactive: -0.036,inactive: 0.014,,
EIF1 (UniProt P41567),inactive: -0.075,inactive: 0.02,inactive: 0.011,inactive: 0.037,inactive: 0,inactive: -0.061,inactive: -0.036,inactive: -0.019,inactive: -0.026,inactive: 0
EIF3I (UniProt Q13347),inactive: 0.076,inactive: 0.055,inactive: -0.069,inactive: -0.047,inactive: -0.148,inactive: 0.056,inactive: -0.046,inactive: -0.073,inactive: -0.112,inactive: -0.003

# Shown tab-delimited: part of the list above.
Target	log2 fold change (bafetinib)	log2 fold change [1]	log2 fold change (nilotinib)	log2 fold change [2]	log2 fold change (dasatinib)	log2 fold change [3]	log2 fold change [4]	log2 fold change [5]	log2 fold change (tipifarnib)	log2 fold change (mubritinib)
EIF2B2 (UniProt P49770)	inactive: 0.037	inactive: 0.036	inactive: 0.045	inactive: -0.003	inactive: 0.038	inactive: -0.001	inactive: -0.086	inactive: -0.055	inactive: -0.04	inactive: -0.005
EFHD2 (UniProt Q96C19)	inactive: -0.076	inactive: 0.031	inactive: -0.087	inactive: 0.177	inactive: 0.002	inactive: 0.071	inactive: -0.115	inactive: 0.023	inactive: -0.095	inactive: 0.072
EIF4G2 (UniProt P78344)	inactive: 0.154	inactive: 0.001	inactive: -0.107	inactive: -0.191	inactive: -0.032	inactive: -0.048	inactive: -0.12	inactive: -0.167	inactive: -0.118	inactive: -0.091
EML3 isoform 2 (UniProt Q32P44)	inactive: 0.071	inactive: 0.039	inactive: -0.09	inactive: -0.069	inactive: 0.054	inactive: -0.042	inactive: -0.021	inactive: -0.129	inactive: 0.055	inactive: 0.001
ELP2 isoform 6 (UniProt Q6IA86)	inactive: -0.023	inactive: 0.038	inactive: -0.011	inactive: 0.021	inactive: 0.016	inactive: -0.008	inactive: 0	inactive: -0.029	inactive: 0.019	inactive: -0.017
EPB41L1 (UniProt Q9H4G0)	inactive: 0.027	inactive: 0.02	inactive: 0.034	inactive: -0.071	inactive: 0.108	inactive: -0.01	inactive: -0.136	inactive: 0	inactive: 0.08	inactive: 0.043
EFL1 (UniProt Q7Z2Z2)	inactive: -0.043	inactive: -0.014	inactive: -0.147	inactive: -0.052	inactive: -0.077	inactive: 0.003	inactive: 0.021	inactive: 0.028	inactive: -0.026	inactive: -0.109
ELP4 (UniProt Q96EB1)	inactive: -0.074	inactive: -0.009	inactive: -0.008	inactive: 0.02	inactive: 0.047	inactive: 0.024	inactive: 0.01	inactive: -0.006	inactive: -0.029	inactive: 0.042
